# Measured values reported in the supplement of paper PMC4604168 (melanoma cell lines).
# Some of the results follow. Single values are uncertain, as repeats are few or missing.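 Cells were imaged in 1,536-well plates, and nuclei stained with an antibody against cleaved PARP were counted against all DNA-stained nuclei to give the apoptosis fraction. Screening doses were chosen to leave most cells alive, and resting and induced cleaved-PARP levels differ strongly between cell lines.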
# Tested on: UACC62
# Test: cleaved PARP positive nuclei fraction relative to DMSO control; melanoma cells; higher = more apoptosis
# Details: library dose: low library concentration; 72 h
row,Compound,cleaved PARP positive nuclei fraction [%]
1,"Cn1cnc2c(F)c(Nc3ccc(Br)cc3Cl)c(C(=O)NOCCO)cc21 [selumetinib] + Cn1nnc2c(C(N)=O)ncn2c1=O [temozolomide] (first compound 0.015 µM, partner dose 2 µM)",292
2,"C[C@]1(O)C[C@@H](c2nc(-c3ccc4ccc(-c5ccccc5)nc4c3)c3c(N)nccn32)C1 + CS(=O)(=O)c1ccc(C(=O)Nc2ccc(Cl)c(-c3ccccn3)c2)c(Cl)c1 [vismodegib] (first compound 0.4 µM, partner dose 1 µM)",115
3,"C[C@]1(O)C[C@@H](c2nc(-c3ccc4ccc(-c5ccccc5)nc4c3)c3c(N)nccn32)C1 + Cc1cc(Nc2cc(N3CCN(C)CC3)nc(/C=C/c3ccccc3)n2)n[nH]1 [ENMD2076] (first compound 0.4 µM, partner dose 0.04 µM)",98.3
4,"Cn1cnc2c(F)c(Nc3ccc(Br)cc3Cl)c(C(=O)NOCCO)cc21 [selumetinib] + O=C(O)[C@@H]1[O][Sb](=[O])([O][Sb]2(=[O])[O][C@H]([C@H](O)CO)[C@H](O)[C@H](C(=O)O)[O]2)[O][C@H]([C@H](O)CO)[C@@H]1O [stibogluconate] (first compound 0.015 µM, partner dose 2 µM)",308
5,"Cn1cnc2c(F)c(Nc3ccc(Br)cc3Cl)c(C(=O)NOCCO)cc21 [selumetinib] + CCN(CC)CCNC(=O)c1c(C)[nH]c(/C=C2\C(=O)Nc3ccc(F)cc32)c1C [sunitinib] (first compound 0.015 µM, partner dose 0.4 µM)",309
